# From PubChem BioAssay AID1347075 (National Center for Advancing Translational Sciences (NCATS), 2019)
# The whole screen tested about 400,000 compounds, of which about 5,500 (1.4%) were called active. The shares of active, inactive and inconclusive entries below differ from those in the screen. The call rests on the fitted dose curve; in most records, active means well fitted cell-killing curve with a large enough effect; inconclusive means small, poorly fitted or top-dose-only effect, or effect the other way; inactive means flat fitted curve, though single readings scatter. Potencies beside an inconclusive call are fits to weak or partial responses and may not hold up.
# Test: qHTS assay for MDR1-selective chemotherapeutics: Primary screen using the parental adenocarcinoma cell KB-3-1; further: nearly all actives have a fitted effect of over 60% in size
# Settings: KB-3-1 viability, CellTiter-Glo ATP luminescence, 72 h; activity change, negative = cytotoxic: at 46.1 µM (top of the series)
# Method in brief: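 Parental KB-3-1 adenocarcinoma cells in phenol-red-free DMEM with 10% FBS were pin-treated with compounds at several concentrations, incubated 72 h at 37 °C, and viability read by CellTiter-Glo luminescence; concentration-effect curves were fitted after normalization.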
# On the % scale 0 is the no-effect control and ±100 the full control effect; potency means the concentration at half of the fitted maximal effect.
SMILES,"activity change, negative = cytotoxic",Potency
O=[N+]([O-])c1ccc(/C=N/n2c(-c3cccnc3)n[nH]c2=S)cc1,inconclusive: -0.569%,
COc1cc(-c2nnc3n2N=C(c2ccccc2)CS3)cc(OC)c1OC,,"inconclusive: 0.0092 µM [cytotoxic, full curve, poor fit]"
CN1C2=CC=CC=CC2=[N+](C)C12C([N+](=O)[O-])=CC(=[N+]([O-])[O-])C=C2[N+](=O)[O-] (configuration not stated),,inactive
Cc1cccc(C(=O)N2CCN(c3ccc(C(F)(F)F)cn3)CC2)c1C,,inactive
O=C(CSc1nc2ccccc2[nH]1)Nc1ccc2[nH]c(=O)[nH]c2c1,,"inconclusive: 11.6 µM [rising, partial curve]"
Cc1cc(C)cc(NC(=O)CSc2nnc(Cc3cccn3C)n2-c2ccc(F)cc2)c1,,inactive
COc1ccc(C2c3c(oc4cc(C)cc(C)c4c3=O)C(=O)N2Cc2ccco2)cc1OC (configuration not stated),,inactive
CCOc1ccc(NC(=S)NCCCN2CCN(c3ccc(OC)cc3)CC2)cc1,,inactive
CCC(C)N(C(=O)Cn1nnc2ccccc21)C(C(=O)Nc1ccc(F)cc1)c1cccc(OC)c1 (configuration not stated),,inactive
COc1ccc(C2c3ccc(O)cc3Oc3ncn4nc(-c5cccnc5)nc4c32)cc1OC (configuration not stated),,"inconclusive: 16.4 µM [cytotoxic, single point]"
CCOc1ccc(OCC)c(NC(=O)CSc2nc3ccccc3c(=O)n2C)c1,,inactive
COc1ccc(-c2csc(NC(=O)C3CCCCN3S(=O)(=O)c3ccccc3)n2)cc1 (configuration not stated),,"inconclusive: 29.1 µM [cytotoxic, single point]"
COc1ccc(NC(=S)NC(NC(=O)c2cccc(Cl)c2)C(Cl)(Cl)Cl)c([N+](=O)[O-])c1 (configuration not stated),,"inconclusive: 25.9 µM [cytotoxic, single point]"
COC(=O)CC1=C(c2ccc([N+](=O)[O-])cc2)CCC1=O,,"inconclusive: 13 µM [rising, single point]"
CCOC(=O)N1CCN(S(=O)(=O)c2ccc(C(=O)N(CCCN(C)C)c3nc4ccc(CC)cc4s3)cc2)CC1,,inactive
O=C(C1CCCCC1)N1C[C@@H](O)[C@H](n2cc(-c3ccc(F)cc3)nn2)C[C@@H]1c1ccc(Cl)cc1,,"inconclusive: 18.4 µM [cytotoxic, single point]"
Cn1c(=O)c2c(nc(NCCCN3CCOCC3)n2Cc2cccc(Cl)c2)n(C)c1=O,,inactive
CC(/C=C/c1ccc(O)cc1)=NNc1ccccc1,,inactive
Cc1nc2ccccc2c(=O)n1NC(=O)c1c(O)c2c(n(CC(C)C)c1=O)CCCC2,,"inconclusive: 29.1 µM [cytotoxic, single point]"
Cc1ccc(S(=O)(=O)c2nc(S(=O)(=O)c3ccccc3)sc2N2CCN(CCO)CC2)cc1,,active: 20.6 µM
CCC(=O)N1CCc2cc(Br)cc(S(=O)(=O)NCCc3ccc(OC)c(OC)c3)c21,,inactive
O=C1NC2c3ccccc3CC2O1 (configuration not stated),,"inconclusive: 7.31 µM [rising, partial curve]"
CC(C)NS(=O)(=O)c1ccc(NC(=S)NC(=O)c2ccc(-c3ccccc3)cc2)cc1,,"inconclusive: 16.4 µM [cytotoxic, partial curve]"
Cc1[nH]n2c(=O)cc(-c3ccccc3Cl)nc2c1-c1ccccc1,,active: 6.51 µM

# Four compounds picked at random from the list so far, as already listed:
SMILES,"activity change, negative = cytotoxic",Potency
O=[N+]([O-])c1ccc(/C=N/n2c(-c3cccnc3)n[nH]c2=S)cc1,inconclusive: -0.569%,
COC(=O)CC1=C(c2ccc([N+](=O)[O-])cc2)CCC1=O,,"inconclusive: 13 µM [rising, single point]"
CCC(=O)N1CCc2cc(Br)cc(S(=O)(=O)NCCc3ccc(OC)c(OC)c3)c21,,inactive
CN1C2=CC=CC=CC2=[N+](C)C12C([N+](=O)[O-])=CC(=[N+]([O-])[O-])C=C2[N+](=O)[O-] (configuration not stated),,inactive

# Additional structures.

SMILES,"activity change, negative = cytotoxic",Potency
Cc1cc(C)cc(NC(=O)CCCSc2nc3ccccc3[nH]2)c1,,inactive
COc1ccc(C(=O)Nc2cccc(NC(=O)c3cccs3)c2)cc1,,inactive
O=C(/C=C/c1cccc(F)c1)N1CCN(c2ncccn2)CC1,inconclusive: 2.17%,
Fc1ccc(CN2CCN(C(=S)NCCc3ccccc3)CC2)c(Cl)c1,,"inconclusive: 18.4 µM [cytotoxic, single point]"
CCc1nc2ccc(C(=O)NCCN(C)C)cn2c1N(CC)CCOC,,inactive
Cc1cc2ccccn2c1C(=O)c1ccc(C#N)cc1,,"inconclusive: 18.4 µM [cytotoxic, single point]"
CCOc1ccc(NC(=O)CSc2n[nH]c(N)n2)c([N+](=O)[O-])c1,,inactive
Cc1ccc(SCC2(O)CCN(S(=O)(=O)c3ccc(Cl)cc3)CC2)cc1,,"inconclusive: 29.1 µM [cytotoxic, single point]"
CC(=O)c1c(-c2ccccc2)[nH]c2ccccc12,,"inconclusive: 18.4 µM [cytotoxic, single point]"
O=[N+]([O-])c1ccc(/C=C/c2ccc3cccc([N+](=O)[O-])c3n2)cc1,,inactive
CCC1=C(CC2NCCc3ccccc32)CC2c3cc(OC)c(OC)cc3CCN2C1 (configuration not stated),,active: 6.51 µM
O=C(COC(=O)c1ccccc1O)NCc1ccco1,,inactive
CCCCCCCNC(=O)C1(CC2CC(c3cccc(Br)c3)=NO2)CCNCC1 (configuration not stated),,"inconclusive: 29.1 µM [cytotoxic, single point]"
O=C1[C@H](Oc2ccccc2)[C@@H](c2ccncc2)N1c1ccncc1,,inactive
O=S(=O)(c1cccc(S(=O)(=O)N2CCCC2)c1)N1CCCCC1,,inactive
O=C(COc1ccc(S(=O)(=O)NC2CCCCC2)cc1)N1CCN(c2cccc(Cl)c2)CC1,,active: 13 µM
N#C/C(=C(/O)C(Cl)c1ccccc1)c1nc2ccccc2s1 (configuration not stated),,"inconclusive: 11.6 µM [cytotoxic, partial curve, poor fit]"
Cc1ccc(C(c2nnnn2CCc2ccccc2)N2CCC(C)CC2)cc1 (configuration not stated),,"inconclusive: 29.1 µM [cytotoxic, single point]"
CC(C)C(=O)N1CCN(c2ccc(NC(=O)c3ccc([N+](=O)[O-])o3)cc2Cl)CC1,,"inconclusive: 18.4 µM [cytotoxic, single point]"
Cc1nc(NC(=O)CCc2ccccc2)ccc1Br,,"inconclusive: 28.2 µM [cytotoxic, single point]"
Cc1cc(C)cc(N=Cc2[nH]c3ccc(Br)c(Cl)c3c2O)c1,,"inconclusive: 32.6 µM [cytotoxic, partial curve, poor fit]"
O=C(O)c1ccc2ncc(NC(=O)c3ccc(F)cc3)c(=O)n2c1,,"inconclusive: 14.6 µM [cytotoxic, single point]"
Cc1cccnc1C(NC(=O)C1CCN(Cc2ccc(Cl)cc2)CC1)c1ccc(F)cc1 (configuration not stated),,inactive
O=C(NCC1CCCO1)c1ccc(Cl)c(S(=O)(=O)Nc2ccccc2)c1 (configuration not stated),,"inconclusive: 29.1 µM [rising, single point]"

SMILES,"activity change, negative = cytotoxic",Potency
Cc1ccccc1CNC(=O)c1ccc(NC(=O)c2nsc3ccccc23)cc1,,inactive
CCCCN=C1NC(=O)C(CC(=O)Nc2ccc(Cl)cc2)S1 (configuration not stated),,inactive
O=C1CC(c2ccsc2)c2ccc3ccccc3c2N1 (configuration not stated),inconclusive: 0.141%,
Cc1ccccc1Nc1sc(C(=O)c2ccc3c(c2)OCO3)c(N)c1S(=O)(=O)c1ccccc1,,"inconclusive: 29.1 µM [cytotoxic, single point]"
Cc1ccc(-c2nc(C(=O)NCc3ccc(Cl)cc3)c3n2CCCCC3)cc1,,"inconclusive: 29.1 µM [cytotoxic, single point]"
COc1ccc(NC(=O)c2cc(-c3ccccc3OC)on2)cc1,,active: 3.98 µM
COc1ccc2[nH]c3c(=O)n(CCCCC(=O)NCCC(C)C)c(=S)[nH]c3c2c1,,inactive
Cc1ccc(NC(=O)CSc2ccccc2NC(=O)c2ccccc2Cl)cc1Cl,,"inconclusive: 18.4 µM [cytotoxic, single point]"
CCCCN(C(=O)c1cccc2c(=O)c(C)c(-c3ccccc3)oc12)c1ccccc1,,"inconclusive: 29.1 µM [cytotoxic, single point]"
CCN1/C(=C/c2ccc3cc(C)ccc3[n+]2CC)Sc2cc(C)c(C)cc21,,active: 1.84 µM
COc1ccc(/C=C/C(=O)Nc2cccc(N3CCOCC3)c2)cc1OC,,"inconclusive: 16.4 µM [rising, single point]"
Cc1ccc(-c2nc(SCC(=O)NCC3CCCO3)c(-c3ccc(Cl)cc3)[nH]2)cc1 (configuration not stated),,inactive
Cc1nn(C)c(C)c1/C=N/NC(=O)CCn1cc([N+](=O)[O-])cn1,,"inconclusive: 8.2 µM [rising, partial curve, poor fit]"
C/C=C(/C)C(=O)O[C@H]1[C@@H](O)c2c(ccc3ccc(=O)oc23)OC1(C)C,,"inconclusive: 0.082 µM [rising, full curve]"
N#CCc1ccc(Oc2ncccn2)cc1,,inactive
CCC(=O)Nc1ccc(-c2nnc(SCC(=O)NCC3CCCO3)n2C)cc1 (configuration not stated),,"inconclusive: 7.31 µM [rising, partial curve]"
Cc1cccc(NC(=O)CSc2nc3c(oc4ccccc43)c(=O)n2-c2ccccc2)c1,,"inconclusive: 5.17 µM [rising, full curve, poor fit]"
O=[N+]([O-])c1ccc2c3n([n+]([O-])c2c1)CCN=C3c1ccc(Cl)cc1,,"inconclusive: 18.4 µM [cytotoxic, single point]"
CC(C)(C)NC(=O)c1ccccc1NC(=O)C1CCCO1 (configuration not stated),,"inconclusive: 29.1 µM [cytotoxic, single point]"
c1ccc(CN2CCN(c3ncnc4c3[nH]c3ccccc34)CC2)cc1,,active: 18.4 µM
COc1ccccc1-c1cc2nc(-c3ccccc3)cc(N3CCN(C(=O)c4ccoc4)CC3)n2n1,,"inconclusive: 13 µM [cytotoxic, partial curve, poor fit]"
C=CCN(CC=C)S(=O)(=O)c1ccc(NC(=S)NC(=O)c2ccc(-c3ccccc3)cc2)cc1,,"inconclusive: 18.4 µM [cytotoxic, partial curve]"
COc1ccc([N+](=O)[O-])cc1NC1CCCCC1,,"inconclusive: 13 µM [cytotoxic, partial curve, poor fit]"
COc1cc(C(=O)C(=O)N2CCN(c3ccc(C)cc3)CC2)cc2ccccc12,,inactive
